Assay results reported in the supplement of paper PMC12067093, “Discovery and optimisation of a covalent ligand for TRIM25 and its application to targeted protein ubiquitination” (Chemical Science, 2025).
The other results are listed elsewhere or left out.

The chains behind the UniProt entries cited, without tags or fusion partners. Where a name states a change or a piece, a line headed by the entry shows the natural chain unless it says otherwise.
UniProt Q9H930: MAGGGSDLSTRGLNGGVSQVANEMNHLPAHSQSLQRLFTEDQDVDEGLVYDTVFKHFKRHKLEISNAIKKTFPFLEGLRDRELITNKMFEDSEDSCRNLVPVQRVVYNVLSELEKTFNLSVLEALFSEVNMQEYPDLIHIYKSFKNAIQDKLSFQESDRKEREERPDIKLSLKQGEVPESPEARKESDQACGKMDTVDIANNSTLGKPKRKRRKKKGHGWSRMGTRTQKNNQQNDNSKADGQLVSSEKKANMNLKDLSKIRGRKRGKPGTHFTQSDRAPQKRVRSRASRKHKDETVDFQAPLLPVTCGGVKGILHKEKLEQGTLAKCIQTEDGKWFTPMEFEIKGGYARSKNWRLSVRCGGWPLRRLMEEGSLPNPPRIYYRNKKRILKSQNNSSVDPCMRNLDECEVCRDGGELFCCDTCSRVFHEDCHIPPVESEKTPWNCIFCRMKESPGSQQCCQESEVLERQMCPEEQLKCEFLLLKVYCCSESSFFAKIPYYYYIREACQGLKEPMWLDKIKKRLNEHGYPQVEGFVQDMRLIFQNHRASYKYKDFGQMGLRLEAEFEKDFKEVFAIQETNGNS
UniProt P62318, whole entry, looked up: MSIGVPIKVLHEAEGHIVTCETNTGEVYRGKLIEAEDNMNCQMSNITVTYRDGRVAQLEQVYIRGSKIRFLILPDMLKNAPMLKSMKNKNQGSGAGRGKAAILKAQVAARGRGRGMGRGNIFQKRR
UniProt P78362, whole entry, looked up: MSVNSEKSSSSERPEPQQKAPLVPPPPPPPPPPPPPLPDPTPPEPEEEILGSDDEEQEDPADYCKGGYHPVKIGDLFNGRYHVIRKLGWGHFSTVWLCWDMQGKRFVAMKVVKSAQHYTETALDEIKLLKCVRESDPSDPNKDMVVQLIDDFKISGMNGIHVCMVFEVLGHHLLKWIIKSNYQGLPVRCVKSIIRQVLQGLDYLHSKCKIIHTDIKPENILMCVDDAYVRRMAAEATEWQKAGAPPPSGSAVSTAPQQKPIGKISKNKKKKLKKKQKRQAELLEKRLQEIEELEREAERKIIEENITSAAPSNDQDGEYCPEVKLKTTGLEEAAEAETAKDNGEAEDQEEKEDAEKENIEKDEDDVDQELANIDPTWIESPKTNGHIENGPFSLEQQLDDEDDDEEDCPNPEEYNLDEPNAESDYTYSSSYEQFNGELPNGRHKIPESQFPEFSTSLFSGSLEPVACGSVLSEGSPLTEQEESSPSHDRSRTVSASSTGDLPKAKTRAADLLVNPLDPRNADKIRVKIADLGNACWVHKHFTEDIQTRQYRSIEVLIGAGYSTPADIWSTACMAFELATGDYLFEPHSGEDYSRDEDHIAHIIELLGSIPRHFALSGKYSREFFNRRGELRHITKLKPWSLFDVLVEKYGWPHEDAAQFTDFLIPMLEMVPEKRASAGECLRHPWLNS
UniProt P09132: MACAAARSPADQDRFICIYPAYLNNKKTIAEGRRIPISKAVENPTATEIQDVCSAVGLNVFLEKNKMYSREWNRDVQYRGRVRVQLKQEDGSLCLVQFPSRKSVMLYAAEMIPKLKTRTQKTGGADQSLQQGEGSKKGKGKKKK
UniProt O15269: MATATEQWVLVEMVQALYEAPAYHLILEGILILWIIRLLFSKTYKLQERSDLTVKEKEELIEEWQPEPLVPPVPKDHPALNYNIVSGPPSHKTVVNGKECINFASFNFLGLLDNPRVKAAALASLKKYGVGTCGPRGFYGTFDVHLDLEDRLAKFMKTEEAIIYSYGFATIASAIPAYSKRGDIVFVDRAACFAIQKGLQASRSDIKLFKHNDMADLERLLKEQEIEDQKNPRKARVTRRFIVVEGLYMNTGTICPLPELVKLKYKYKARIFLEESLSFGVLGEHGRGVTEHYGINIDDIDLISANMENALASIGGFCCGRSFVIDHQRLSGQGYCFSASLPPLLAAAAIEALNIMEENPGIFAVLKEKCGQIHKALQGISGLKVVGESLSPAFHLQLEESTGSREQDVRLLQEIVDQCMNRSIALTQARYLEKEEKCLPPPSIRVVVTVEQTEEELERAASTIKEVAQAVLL
UniProt Q01082, whole entry, looked up: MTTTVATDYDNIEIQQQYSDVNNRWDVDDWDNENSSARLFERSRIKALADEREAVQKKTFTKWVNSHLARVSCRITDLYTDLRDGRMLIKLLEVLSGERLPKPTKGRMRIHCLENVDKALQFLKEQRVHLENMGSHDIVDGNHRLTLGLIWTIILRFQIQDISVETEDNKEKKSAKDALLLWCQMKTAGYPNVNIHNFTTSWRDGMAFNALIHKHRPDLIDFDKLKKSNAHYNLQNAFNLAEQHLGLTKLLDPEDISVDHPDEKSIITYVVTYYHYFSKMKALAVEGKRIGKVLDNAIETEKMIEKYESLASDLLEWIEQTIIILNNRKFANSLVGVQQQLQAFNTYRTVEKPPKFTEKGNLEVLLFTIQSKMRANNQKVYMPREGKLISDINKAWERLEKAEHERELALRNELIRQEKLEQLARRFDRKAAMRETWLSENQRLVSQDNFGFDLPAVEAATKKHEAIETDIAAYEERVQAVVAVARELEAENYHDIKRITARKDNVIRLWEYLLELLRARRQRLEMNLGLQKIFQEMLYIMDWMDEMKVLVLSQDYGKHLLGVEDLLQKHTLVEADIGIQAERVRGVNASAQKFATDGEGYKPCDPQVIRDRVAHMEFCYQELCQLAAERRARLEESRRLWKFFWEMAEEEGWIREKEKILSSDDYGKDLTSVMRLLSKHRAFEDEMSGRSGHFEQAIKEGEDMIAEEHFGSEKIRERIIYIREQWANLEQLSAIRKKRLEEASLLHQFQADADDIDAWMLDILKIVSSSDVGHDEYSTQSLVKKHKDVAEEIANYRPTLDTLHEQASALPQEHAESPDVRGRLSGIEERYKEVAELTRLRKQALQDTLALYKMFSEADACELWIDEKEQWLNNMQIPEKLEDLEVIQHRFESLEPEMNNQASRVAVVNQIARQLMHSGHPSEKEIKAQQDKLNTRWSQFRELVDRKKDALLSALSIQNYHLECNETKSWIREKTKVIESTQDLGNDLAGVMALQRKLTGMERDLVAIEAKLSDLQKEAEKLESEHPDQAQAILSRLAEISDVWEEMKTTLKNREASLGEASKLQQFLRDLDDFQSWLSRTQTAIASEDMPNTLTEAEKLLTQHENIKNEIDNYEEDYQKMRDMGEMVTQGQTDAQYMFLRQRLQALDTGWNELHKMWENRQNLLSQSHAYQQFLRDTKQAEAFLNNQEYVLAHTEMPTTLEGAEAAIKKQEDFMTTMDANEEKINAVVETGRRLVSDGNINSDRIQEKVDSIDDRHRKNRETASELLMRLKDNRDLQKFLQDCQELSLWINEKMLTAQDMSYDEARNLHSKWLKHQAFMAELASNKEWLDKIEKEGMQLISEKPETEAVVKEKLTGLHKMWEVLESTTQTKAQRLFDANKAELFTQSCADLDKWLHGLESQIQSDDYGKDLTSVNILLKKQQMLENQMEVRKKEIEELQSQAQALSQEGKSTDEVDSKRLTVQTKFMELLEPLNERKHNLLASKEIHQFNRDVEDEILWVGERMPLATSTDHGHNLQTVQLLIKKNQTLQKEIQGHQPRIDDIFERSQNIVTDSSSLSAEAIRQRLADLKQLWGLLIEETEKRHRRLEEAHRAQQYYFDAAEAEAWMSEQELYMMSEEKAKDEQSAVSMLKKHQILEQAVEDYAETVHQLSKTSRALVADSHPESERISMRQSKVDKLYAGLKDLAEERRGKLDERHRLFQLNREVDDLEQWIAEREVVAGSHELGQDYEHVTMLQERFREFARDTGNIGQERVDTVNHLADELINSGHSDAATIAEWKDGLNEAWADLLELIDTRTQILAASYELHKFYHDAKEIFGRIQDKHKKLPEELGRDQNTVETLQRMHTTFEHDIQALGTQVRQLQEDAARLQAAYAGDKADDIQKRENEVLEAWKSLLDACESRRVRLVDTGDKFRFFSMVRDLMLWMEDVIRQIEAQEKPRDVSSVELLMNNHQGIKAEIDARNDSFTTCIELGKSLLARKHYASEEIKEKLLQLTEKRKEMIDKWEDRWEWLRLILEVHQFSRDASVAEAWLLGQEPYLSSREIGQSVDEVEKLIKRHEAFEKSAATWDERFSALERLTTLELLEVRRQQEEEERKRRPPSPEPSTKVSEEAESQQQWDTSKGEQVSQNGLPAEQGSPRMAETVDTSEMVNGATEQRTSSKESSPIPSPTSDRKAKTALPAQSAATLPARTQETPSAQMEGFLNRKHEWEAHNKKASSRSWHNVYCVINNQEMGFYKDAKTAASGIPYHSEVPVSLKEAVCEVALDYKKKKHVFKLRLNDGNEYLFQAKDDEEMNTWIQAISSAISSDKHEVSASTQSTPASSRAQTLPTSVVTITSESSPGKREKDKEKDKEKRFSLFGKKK
UniProt O15270: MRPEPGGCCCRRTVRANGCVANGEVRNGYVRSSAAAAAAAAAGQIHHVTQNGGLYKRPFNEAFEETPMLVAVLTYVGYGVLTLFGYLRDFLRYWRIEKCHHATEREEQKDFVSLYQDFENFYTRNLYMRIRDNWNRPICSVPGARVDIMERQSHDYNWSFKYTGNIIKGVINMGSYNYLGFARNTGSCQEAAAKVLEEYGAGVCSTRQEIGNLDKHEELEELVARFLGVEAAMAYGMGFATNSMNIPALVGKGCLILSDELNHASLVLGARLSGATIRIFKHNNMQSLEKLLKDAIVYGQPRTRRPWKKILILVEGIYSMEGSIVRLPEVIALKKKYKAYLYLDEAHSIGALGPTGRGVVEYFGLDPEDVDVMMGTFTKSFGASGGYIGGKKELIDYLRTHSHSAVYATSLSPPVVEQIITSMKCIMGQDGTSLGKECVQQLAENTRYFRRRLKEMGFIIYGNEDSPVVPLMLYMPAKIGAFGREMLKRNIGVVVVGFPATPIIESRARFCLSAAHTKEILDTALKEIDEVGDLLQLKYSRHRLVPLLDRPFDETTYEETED
UniProt Q5T280: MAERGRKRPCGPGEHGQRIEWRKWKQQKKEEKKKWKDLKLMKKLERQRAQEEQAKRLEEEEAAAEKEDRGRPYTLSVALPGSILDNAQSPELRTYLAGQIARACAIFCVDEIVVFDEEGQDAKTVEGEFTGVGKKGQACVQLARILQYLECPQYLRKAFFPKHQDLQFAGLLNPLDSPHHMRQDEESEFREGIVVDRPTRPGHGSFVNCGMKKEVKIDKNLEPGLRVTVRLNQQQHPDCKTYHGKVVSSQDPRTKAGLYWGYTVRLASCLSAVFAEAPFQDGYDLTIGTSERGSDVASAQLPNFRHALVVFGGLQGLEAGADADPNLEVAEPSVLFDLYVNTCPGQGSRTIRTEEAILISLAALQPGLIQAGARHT
UniProt Q9H8P0: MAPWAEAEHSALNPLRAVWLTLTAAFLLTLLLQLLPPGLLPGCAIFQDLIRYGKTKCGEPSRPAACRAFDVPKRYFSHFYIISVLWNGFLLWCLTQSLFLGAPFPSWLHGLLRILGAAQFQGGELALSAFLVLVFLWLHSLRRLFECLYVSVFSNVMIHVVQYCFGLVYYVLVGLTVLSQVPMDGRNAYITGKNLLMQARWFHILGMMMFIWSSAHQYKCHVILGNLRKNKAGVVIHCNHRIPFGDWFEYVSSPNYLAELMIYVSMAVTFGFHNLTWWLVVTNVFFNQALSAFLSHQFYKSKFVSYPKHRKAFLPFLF
UniProt P23497: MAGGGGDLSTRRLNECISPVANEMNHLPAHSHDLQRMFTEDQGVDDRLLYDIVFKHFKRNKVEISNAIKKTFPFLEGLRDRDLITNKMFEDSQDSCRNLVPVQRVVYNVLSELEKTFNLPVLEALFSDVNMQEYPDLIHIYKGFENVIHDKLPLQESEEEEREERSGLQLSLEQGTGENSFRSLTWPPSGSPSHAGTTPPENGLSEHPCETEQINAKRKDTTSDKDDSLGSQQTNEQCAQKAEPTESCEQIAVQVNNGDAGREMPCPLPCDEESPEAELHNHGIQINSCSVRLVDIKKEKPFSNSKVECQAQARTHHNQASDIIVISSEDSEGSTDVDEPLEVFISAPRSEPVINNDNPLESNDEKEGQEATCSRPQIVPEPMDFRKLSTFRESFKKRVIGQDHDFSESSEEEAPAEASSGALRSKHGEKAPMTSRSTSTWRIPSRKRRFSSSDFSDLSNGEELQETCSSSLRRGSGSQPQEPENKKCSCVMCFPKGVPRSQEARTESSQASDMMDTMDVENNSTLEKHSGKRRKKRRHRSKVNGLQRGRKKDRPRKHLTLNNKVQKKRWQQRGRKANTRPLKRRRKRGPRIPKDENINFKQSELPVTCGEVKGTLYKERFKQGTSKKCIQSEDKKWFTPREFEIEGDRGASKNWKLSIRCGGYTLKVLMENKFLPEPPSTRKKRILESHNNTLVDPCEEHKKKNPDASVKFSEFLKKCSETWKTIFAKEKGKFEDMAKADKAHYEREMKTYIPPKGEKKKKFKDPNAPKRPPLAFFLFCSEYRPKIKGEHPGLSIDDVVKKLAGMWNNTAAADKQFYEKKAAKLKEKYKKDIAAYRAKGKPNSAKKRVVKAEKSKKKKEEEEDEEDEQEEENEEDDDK

compound: Cc1cc(ccc1-c1ccccc1)C(=O)N1CCCN(CC1)C(=O)CCl [compound 10]; assay: probe-labelled cysteine peptide fold change vs DMSO (competition) (log2 fold change); higher = less target engagement (more negative = stronger competition); conditions: 10 µM; THP-1; incubation time: 4 h
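Also: competitive profiling in live THP-1 cells: cysteine peptides tagged with an iodoacetamide desthiobiotin (IA-DTB) probe, intensity after compound treatment relative to DMSO-treated cells.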

Row | Target | probe-labelled cysteine peptide fold change
1 | SP140L_Q9H930_191_KESDQACGK (UniProt Q9H930) | -0.0796
2 | SPTAN1_Q13813_956_EQAQSCR (UniProt Q13813) | -0.0464
3 | SOWAHD_A6NJG2_109_LCLEPR (UniProt A6NJG2) | -0.0959
4 | SNRPD3_P62318_41_LIEAEDNMNCQMSNITVTYRDGR (UniProt P62318) | 0.0222
5 | SRPK2_P78362_320_IIEENITSAAPSNDQDGEYCPEVK (UniProt P78362) | -0.0943
6 | SPECC1_Q5M775_633_EICDHQAEQLSR (UniProt Q5M775) | -0.0408
7 | SPATA2_Q9UM82_41_QRPGSDECLR (UniProt Q9UM82) | -0.46
8 | SRM_P19623_123_HPSVESVVQCEIDEDVIQVSK (UniProt P19623) | 0.179
9 | SRP19_P09132_94_QEDGSLCLVQFPSRK (UniProt P09132) | 0.413
10 | SPART_Q8N0X7_562_CIVNNVSAETVQTVR (UniProt Q8N0X7) | 0.154
11 | SPTLC1_O15269_100_ECINFASFNFLGLLDNPR (UniProt O15269) | -0.181
12 | SPTBN1_Q01082_2227_SWHNVYCVINNQEMGFYK (UniProt Q01082) | 0.249
13 | SRGAP2_O75044_486_TDCSLAR (UniProt O75044) | -0.256
14 | SPTLC2_O15270_511_FCLSAAHTK (UniProt O15270) | 0.0111
15 | SPTBN1_Q01082_1389_AELFTQSCADLDK (UniProt Q01082) | 0.0919
16 | SPATA5L1_Q9BVQ7_685_TMPIGPDVSLENLAAETCFFSGADLR (UniProt Q9BVQ7) | 0.113
17 | SNX2_O60749_332_LHVSVEALVCHR (UniProt O60749) | -0.15
18 | SPOUT1_Q5T280_10_RPCGPGEHGQR (UniProt Q5T280) | -0.19
19 | SRD5A3_Q9H8P0_238_AGVVIHCNHR (UniProt Q9H8P0) | 0.233
20 | SNX9_Q9Y5X1_502_GFLGCFPDIIGTHK (UniProt Q9Y5X1) | 0.124
21 | SPAG9_O60271_1210_VTPGTFIPYCSMAHAQLCFHGHR (UniProt O60271) | 0.231
22 | SP100_P23497_16_LNECISPVANEMNHLPAHSHDLQR (UniProt P23497) | -0.429
23 | SQSTM1_Q13501_131_NMVHPNVICDGCNGPVVGTR (UniProt Q13501) | 0.13
24 | SORD_Q00796_179_VLVCGAGPIGMVTLLVAK (UniProt Q00796) | -0.0988

In a second layout: results already given
SPTLC1_O15269_100_ECINFASFNFLGLLDNPR (UniProt O15269)
  probe-labelled cysteine peptide fold change = -0.181
SPTBN1_Q01082_2227_SWHNVYCVINNQEMGFYK (UniProt Q01082)
  probe-labelled cysteine peptide fold change = 0.249
